In article PMC7327037 one finds binding data, which are given here for 3 molecules.

No constants are given. Whether binding was seen depends on the method and setting. In cells and extracts the contact can be indirect. Binding can be weak; no strength is given. For part of these data: Where a sequence is shown, tags or fusion partners need not be part of it.

Assay [1] has as its target T1, FOXM1D as used in the co-IP and reverse/reciprocal co-IP assays (UniProt Q08050).
T1 sequence: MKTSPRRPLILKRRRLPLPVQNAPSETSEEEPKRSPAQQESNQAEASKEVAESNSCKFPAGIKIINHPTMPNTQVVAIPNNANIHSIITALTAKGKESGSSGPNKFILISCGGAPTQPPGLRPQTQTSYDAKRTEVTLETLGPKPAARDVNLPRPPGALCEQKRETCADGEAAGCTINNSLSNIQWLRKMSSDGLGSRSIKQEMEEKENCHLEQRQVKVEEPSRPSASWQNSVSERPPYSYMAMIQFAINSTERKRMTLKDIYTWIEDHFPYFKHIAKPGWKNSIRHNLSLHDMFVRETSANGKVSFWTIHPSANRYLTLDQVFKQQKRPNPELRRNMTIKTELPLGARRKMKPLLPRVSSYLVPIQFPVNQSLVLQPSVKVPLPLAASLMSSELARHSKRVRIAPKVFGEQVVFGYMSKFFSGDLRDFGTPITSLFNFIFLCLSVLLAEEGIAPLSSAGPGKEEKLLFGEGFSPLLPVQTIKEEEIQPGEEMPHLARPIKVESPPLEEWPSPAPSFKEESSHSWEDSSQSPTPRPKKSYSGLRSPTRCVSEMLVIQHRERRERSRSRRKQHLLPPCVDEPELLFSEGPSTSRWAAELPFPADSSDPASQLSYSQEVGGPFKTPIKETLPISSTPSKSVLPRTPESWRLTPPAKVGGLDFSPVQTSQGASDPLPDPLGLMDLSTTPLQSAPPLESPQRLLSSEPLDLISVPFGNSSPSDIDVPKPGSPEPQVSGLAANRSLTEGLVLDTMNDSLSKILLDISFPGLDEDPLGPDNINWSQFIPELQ
Description: co-IP; co-IP and reverse (reciprocal) co-IP (Fig. 1b, f, g; Supplementary Fig. 3a); cells, tags and antibodies not told in the text shown.

Assay [2] concerns the target T2, FOXM1D as used in the GST pull down assays (UniProt Q08050).
T2 sequence: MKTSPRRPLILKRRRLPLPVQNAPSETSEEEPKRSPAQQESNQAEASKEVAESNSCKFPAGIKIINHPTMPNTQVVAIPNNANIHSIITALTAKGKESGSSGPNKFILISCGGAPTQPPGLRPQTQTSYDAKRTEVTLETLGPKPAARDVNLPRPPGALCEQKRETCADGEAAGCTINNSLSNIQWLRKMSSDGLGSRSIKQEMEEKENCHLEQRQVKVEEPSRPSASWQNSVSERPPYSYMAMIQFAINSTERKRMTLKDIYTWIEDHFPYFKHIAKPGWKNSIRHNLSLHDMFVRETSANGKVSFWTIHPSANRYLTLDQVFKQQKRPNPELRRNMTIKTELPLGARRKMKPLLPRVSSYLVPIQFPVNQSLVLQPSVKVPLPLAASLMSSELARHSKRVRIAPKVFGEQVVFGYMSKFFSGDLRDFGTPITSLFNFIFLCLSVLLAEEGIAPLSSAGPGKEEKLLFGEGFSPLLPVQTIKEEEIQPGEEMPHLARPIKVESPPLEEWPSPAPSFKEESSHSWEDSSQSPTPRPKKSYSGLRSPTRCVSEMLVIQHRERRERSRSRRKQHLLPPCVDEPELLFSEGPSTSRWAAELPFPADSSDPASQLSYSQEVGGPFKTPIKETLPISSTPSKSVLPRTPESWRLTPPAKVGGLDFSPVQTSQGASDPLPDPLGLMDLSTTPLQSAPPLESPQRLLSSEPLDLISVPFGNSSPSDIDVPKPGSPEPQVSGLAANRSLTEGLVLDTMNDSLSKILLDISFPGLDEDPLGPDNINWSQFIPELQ
Description: pull-down; GST pull down (Supplementary Fig. 3b, 4c); which partner carried GST not told in the text shown.

Assay [3] deals with p85α (PI3K regulatory subunit) as used in the reciprocal co-IP assays. Description: co-IP; co-IP and reverse (reciprocal) co-IP (Fig. 1b, f, g; Supplementary Fig. 3a); cells, tags and antibodies not told in the text shown.

On to “p85α (PI3K regulatory subunit) as used in the reciprocal co-IP assays”, for which the binding result in assay [1] is “binds”.

With p85α as used in the GST pull down assay, the binding entry in assay [2] is reported as “binds”.

B1: FOXM1D as used in the co-IP and reverse/reciprocal co-IP assays (protein, UniProt Q08050-4 1-786)
chain: MKTSPRRPLILKRRRLPLPVQNAPSETSEEEPKRSPAQQESNQAEASKEVAESNSCKFPAGIKIINHPTMPNTQVVAIPNNANIHSIITALTAKGKESGSSGPNKFILISCGGAPTQPPGLRPQTQTSYDAKRTEVTLETLGPKPAARDVNLPRPPGALCEQKRETCADGEAAGCTINNSLSNIQWLRKMSSDGLGSRSIKQEMEEKENCHLEQRQVKVEEPSRPSASWQNSVSERPPYSYMAMIQFAINSTERKRMTLKDIYTWIEDHFPYFKHIAKPGWKNSIRHNLSLHDMFVRETSANGKVSFWTIHPSANRYLTLDQVFKQQKRPNPELRRNMTIKTELPLGARRKMKPLLPRVSSYLVPIQFPVNQSLVLQPSVKVPLPLAASLMSSELARHSKRVRIAPKVFGEQVVFGYMSKFFSGDLRDFGTPITSLFNFIFLCLSVLLAEEGIAPLSSAGPGKEEKLLFGEGFSPLLPVQTIKEEEIQPGEEMPHLARPIKVESPPLEEWPSPAPSFKEESSHSWEDSSQSPTPRPKKSYSGLRSPTRCVSEMLVIQHRERRERSRSRRKQHLLPPCVDEPELLFSEGPSTSRWAAELPFPADSSDPASQLSYSQEVGGPFKTPIKETLPISSTPSKSVLPRTPESWRLTPPAKVGGLDFSPVQTSQGASDPLPDPLGLMDLSTTPLQSAPPLESPQRLLSSEPLDLISVPFGNSSPSDIDVPKPGSPEPQVSGLAANRSLTEGLVLDTMNDSLSKILLDISFPGLDEDPLGPDNINWSQFIPELQ
Turning to B1, in assay [3], the binding entry was “binds”.
